Consider two substances from US9676822B2, “Oligopeptidic compounds and uses thereof” (APIM THERAPEUTICS AS, priority 2008, dated 2017).

The series concerns HeLa cells. The series can be described thus: Cellular import and localisation of tag-labelled peptides by confocal microscopy. In kind it is cell-based. The following applies: fluorescent-tagged peptide incubated with HeLa cells.

“MDRWLVKRIWKKKRKIIRQIKIWFQNRRMKWKK-Ahx5-FAM)G (Ahx5-FAM label, G; MDR26-8)”: the Localization entry is “nucleus”.

For “MDRWLVKWKKKRKIRRRRRRRRRRRK-FAM)G (FAM label, G; MDR26-72)”, the Localization result is reported as “nucleus”.
